The record followed here is article PMC3807682.

In the data set the test system is MEF2-HA + TBP (TATA binding protein). The data set can be described thus: EMSA. The conditions noted are these: poly(dI-dC), 10 mM Tris pH 7.6, 75 mM KCl, 1 mM DTT, 2.5 mM MgCl2, 5% glycerol, 1 ug poly(dI-dC), 2 fmol dsDNA, 1-2 ug nuclear extract in 20 ul, 10 min, room temperature, protein in an extract, protein details: HA.

For at least one entry, the source does not settle the construct or the ends of the probe. Where cells or extracts were used, other partners may take part. No signal at the amounts used counts as a negative.

As to “TTGTCTGGGACTGAGCTATAAAAGCCTCACCATCTCAACG (double strand) [mtkpro-40mer (Mtk core promoter, MEF2-TATA)]”, for the setting “complex 1, eliminated by preincubation with anti-HA or anti-TBP”, the binding result is reported as “binds”. On to “TTGTCTGGGACTGAGGTATAAAATTCTCACCATCTCAACG (double strand) [mtkpro-40mer-deltaM]”, for which, for the setting “both complexes eliminated”, the binding result is “no binding”.
